The results in this text go back to paper doi:10.1101/2022.06.14.496144.

For test [1], the target named is T1, Synechocystis sp. PCC 6803 Orange Carotenoid Protein clade 1 (SynOCP1) (Synechocystis sp. PCC 6803), P74102.
T1 chain: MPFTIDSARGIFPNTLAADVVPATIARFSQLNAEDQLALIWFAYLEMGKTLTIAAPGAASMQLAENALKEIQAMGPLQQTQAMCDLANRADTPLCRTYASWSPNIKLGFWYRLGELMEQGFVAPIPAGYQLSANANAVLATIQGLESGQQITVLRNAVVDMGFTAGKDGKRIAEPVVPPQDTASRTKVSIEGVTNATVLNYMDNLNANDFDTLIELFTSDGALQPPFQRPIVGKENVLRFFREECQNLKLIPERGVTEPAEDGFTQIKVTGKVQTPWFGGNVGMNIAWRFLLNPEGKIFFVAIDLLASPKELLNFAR
The test can be described thus: SEC. As to conditions: remark: other sources report otherwise.

In test [2] the target is T1, Synechocystis sp. PCC 6803 Orange …. The test can be described thus: SEC-MALS. As to conditions: remark: other sources report otherwise.

Results are given in words; binding and its absence hold for the method and conditions named.

B1: Synechocystis sp. PCC 6803 Orange Carotenoid Protein clade 1 (SynOCP1), P74102 1-317 (protein)
chain: T1 chain
Take B1: the binding result in test [1] was “no binding”; in test [2], “no binding (tested: 5 mg/ml)”.
